Source: PubChem BioAssay AID1671195 (Yale University, 2021)
Aim: 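Knockdowns that increase or decrease uptake of fluorescent LDL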 (primary screen). System: human Huh7 hepatoma cells. Reagent: siRNA pool against human genes, 18 nM. Timing: about 2 to 2.5 days of knockdown, then 8 h LDL uptake. Challenge: DiI-labelled LDL at 30 µg/ml for 8 h, in lipoprotein-deficient serum medium. Read-out: 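Per-cell DiI-LDL intensity by automated imaging; well means scaled to the plate median and given as a robust z-score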. Reading the numbers: robust z-score: higher = more LDL uptake after knockdown. Hit rule: 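a gene counts as active if at least two replicate z-scores exceed ±2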.
Here is an unselected part of about 22,000 reagents. About 1,510 of them (6.9%) count as active. 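Active includes knockdowns raising or lowering LDL uptake; positive z-scores mean more uptake, negative mean less.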 Reagent sequences are not shown.

The opening 4 entries as a preview:
gene | robust z-score, replicate 1 | robust z-score, replicate 2 | robust z-score, replicate 3 | Outcome
ATMIN (GeneID 23300) | 0.208 | -0.086 | 0.254 | inactive
DMP1 (GeneID 1758) | 0.531 | 0.998 | -1.03 | inactive
P2RX4 (GeneID 5025) | 0.444 | -0.404 | -0.0949 | inactive
ELOA2 (GeneID 51224) | 1.79 | 0.159 | 1.84 | inactive

Results, from the first entry:
gene | robust z-score, replicate 1 | robust z-score, replicate 2 | robust z-score, replicate 3 | Outcome
ATMIN (GeneID 23300) | 0.208 | -0.086 | 0.254 | inactive
DMP1 (GeneID 1758) | 0.531 | 0.998 | -1.03 | inactive
P2RX4 (GeneID 5025) | 0.444 | -0.404 | -0.0949 | inactive
ELOA2 (GeneID 51224) | 1.79 | 0.159 | 1.84 | inactive
KATNBL1 (GeneID 79768) | 0.193 | 0.263 | 0.175 | inactive
ZNF556 (GeneID 80032) | -0.181 | -0.0607 | -0.313 | inactive
LOC440474 (retired record) (GeneID 440474) | -1.42 | -1.65 | 1.7 | inactive
PSMD1 (GeneID 5707) | 0.911 | 1.06 | 0.993 | inactive
OR2A5 (GeneID 393046) | 0.471 | 0.904 | 0.901 | inactive
EXOC6 (GeneID 54536) | 0.379 | 0.122 | -0.149 | inactive
LOC389264 (retired record) (GeneID 389264) | -0.295 | -0.158 | -0.28 | inactive
KRT17 (GeneID 3872) | -1.15 | -0.341 | -0.854 | inactive
LOC389405 (retired record) (GeneID 389405) | -1.91 | -2.26 | -1.65 | active
CCDC171 (GeneID 203238) | -0.211 | -0.154 | -0.329 | inactive
LRRC1 (GeneID 55227) | 2.23 | 4.08 | -0.0675 | active
PLEK (GeneID 5341) | 0.471 | -0.335 | 0.377 | inactive
APOM (GeneID 55937) | 1.39 | -0.395 | -0.639 | inactive
HSD3B7 (GeneID 80270) | 0.269 | -0.747 | 0.116 | inactive
PPIAP26 (GeneID 121981) | 0.332 | 0.101 | 0.585 | inactive
LINC02905 (GeneID 606553) | -0.342 | -0.6 | -0.239 | inactive
CLLU1-AS1 (GeneID 574016) | 0.537 | 0.41 | 0.167 | inactive
LOC389055 (retired record) (GeneID 389055) | 0.529 | 0.434 | 0.18 | inactive
SMC6 (GeneID 79677) | 0.981 | 0.199 | 0.673 | inactive
LOC441036 (retired record) (GeneID 441036) | 0.627 | -0.0751 | -0.0757 | inactive
ENDOD1 (GeneID 23052) | 0.552 | 0.696 | -0.645 | inactive
WDR43 (GeneID 23160) | 0.588 | 2.5 | 0.149 | inactive
TYMSOS (GeneID 494514) | 0.67 | 1.18 | 0.824 | inactive
APOC3 (GeneID 345) | -1.21 | -1.05 | -0.992 | inactive
BRMS1 (GeneID 25855) | -0.248 | 0.48 | -1.16 | inactive
ABCC5 (GeneID 10057) | 1.78 | 2.72 | 1.11 | inactive
STEAP4 (GeneID 79689) | -1.56 | -1.59 | -0.817 | inactive
DIP2A (GeneID 23181) | -0.648 | 0.653 | -2.12 | inactive
LINC02910 (GeneID 284756) | 4.83 | 5.14 | 4.41 | active
LEMD3 (GeneID 23592) | 1.14 | -0.461 | 0.0661 | inactive
SORBS2 (GeneID 8470) | -0.33 | -0.8 | 0.0518 | inactive
DAB2IP (GeneID 153090) | 0.776 | 0.607 | 0.454 | inactive
TCEA1P3 (GeneID 340501) | 0.738 | 0.761 | 0.496 | inactive
HLTF (GeneID 6596) | -1.48 | -1.89 | -1.74 | inactive
ASNS (GeneID 440) | -0.233 | -0.997 | -2.27 | inactive
KLB (GeneID 152831) | -0.893 | -0.897 | -0.974 | inactive
TRIB3 (GeneID 57761) | 0.217 | -0.539 | 0.05 | inactive
PCDH12 (GeneID 51294) | -0.532 | -0.187 | 0.0579 | inactive
SYNGR3 (GeneID 9143) | -1.52 | -1.01 | -1.24 | inactive
CCDC15 (GeneID 80071) | -0.446 | -0.413 | 0.269 | inactive
LOC401704 (retired record) (GeneID 401704) | -1.57 | -1.97 | -1.84 | inactive
MAP2K2 (GeneID 5605) | 3.12 | -0.133 | 0.203 | inactive
PRRT4 (GeneID 401399) | -0.419 | -0.284 | -0.13 | inactive
PROCR (GeneID 10544) | 1.02 | 0.00893 | -0.964 | inactive
USP44 (GeneID 84101) | 0.273 | 0.755 | 0.265 | inactive
STAT3 (GeneID 6774) | -1.9 | -1.83 | -1.98 | inactive
FUNDC2P2 (GeneID 388965) | 0.748 | 0.96 | 0.272 | inactive
ALKBH5 (GeneID 54890) | 0.112 | -0.882 | 0.977 | inactive
TSHR (GeneID 7253) | -0.0538 | 0.42 | -0.839 | inactive
HS3ST5 (GeneID 222537) | -0.967 | -1.21 | -1.64 | inactive
RPS12P8 (GeneID 402184) | 0.214 | 0.124 | -0.171 | inactive
BRD9 (GeneID 65980) | -0.691 | -0.555 | -0.688 | inactive
C6orf62 (GeneID 81688) | -0.0196 | 0.0351 | 0.289 | inactive
DYNLRB2 (GeneID 83657) | 0.0777 | 0.457 | 0.512 | inactive
NCAPG2 (GeneID 54892) | 3.42 | 2.95 | 2.27 | active
SERPINB11 (GeneID 89778) | 1.16 | 0.692 | 0.772 | inactive
DEFA6 (GeneID 1671) | 0.477 | 0.856 | -1.33 | inactive
ACTR2P2 (GeneID 284441) | 4.08 | 3.97 | 2.74 | active
SLC25A4 (GeneID 291) | 0.621 | -0.103 | -0.695 | inactive
LOC441657 (retired record) (GeneID 441657) | -1.29 | -1.25 | -0.884 | inactive
DTX1 (GeneID 1840) | -0.8 | -0.688 | -0.554 | inactive
ANAPC5 (GeneID 51433) | -2.09 | -1.94 | -2.69 | active
LHFPL7 (GeneID 255349) | 1.02 | 1.16 | 1.1 | inactive
LINC02901 (GeneID 100130967) | 0.496 | 0.497 | -0.245 | inactive
